PubChem BioAssay AID743456 – Peter MacCallum Cancer Centre | 2014
Here is one part, drawn at random, of 878 reagents. 27 of all reagents (3.1%) count as active. 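27 mimics are marked active, unlike an earlier stated count of 24; the viability threshold is described inconsistently.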 A number with no mark means an inactive call. No sequences are given here. Not stated in the record: the amount of reagent.

Purpose: 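Identify miRNAs tied to vorinostat resistance or sensitivity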 (primary screen)
Cells: human HCT116-VR colon cancer cells, a vorinostat-resistant HCT116 line
Reagent: miRNA mimic
Duration: about 3 days from transfection to readout; drug present for the last 24 h
Treatment: vorinostat at 2.5 µM final for 24 h
Measurement: 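Per-well live-cell protease fluorescence and caspase luminescence under 2.5 µM vorinostat for 24 h, scored as robust z-scores and against mock transfection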
Reading the numbers: viability robust z-score and viability vs mock transfection: higher = more viable cells; caspase robust z-score: higher = more caspase activity, more apoptosis
Hit rule: 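Active when viability drops or caspase activity climbs beyond robust z thresholds, with wells of poor cell health excluded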

| miRNA | viability robust z-score | caspase robust z-score | viability hit class | caspase hit class | viability vs mock transfection |
| --- | --- | --- | --- | --- | --- |
| hsa-miR-125b-2* | -1.36 | -0.18 | no change | no change | 0.5 |
| hsa-miR-1207-3p | -1.89 (active) | 5.65 | no change | caspase activation | 0.51 |
| hsa-miR-520a-5p | -0.05 | -0.86 | no change | no change | 0.79 |
| hsa-miR-181a* | 1.17 | -0.39 | no change | no change | 0.96 |
| hsa-miR-1304 | -1.38 | -0.45 | no change | no change | 0.5 |
| hsa-miR-9 | 0.3 | -0.42 | no change | no change | 0.84 |
| hsa-miR-30c | 0.38 | -0.56 | no change | no change | 0.84 |
| hsa-miR-101* | -1.21 | 0.4 | no change | no change | 0.54 |
| hsa-miR-182* | -0.86 | 3.06 | no change | no change | 0.6 |
| hsa-miR-551b | 0.9 | -0.7 | no change | no change | 0.91 |
| hsa-miR-661 | -2.38 (active) | 4.95 | no change | caspase activation | 0.4 |
| hsa-miR-587 | 1.63 | -0.56 | no change | no change | 1.04 |
| hsa-miR-593* | -0.18 | 0.88 | no change | no change | 0.72 |
| hsa-miR-133a | -0.02 | 1.68 | no change | no change | 0.79 |
| hsa-miR-575 | -0.2 | 1.56 | no change | no change | 0.76 |
| hsa-miR-933 | 0.69 | 1.17 | no change | no change | 0.9 |
| hsa-miR-376a* | -0.7 | 2.78 | no change | no change | 0.67 |
| hsa-miR-199a-5p | 0.92 | 0.25 | no change | no change | 0.9 |
| hsa-miR-1225-3p | 0.23 | -0.46 | no change | no change | 0.83 |
| hsa-miR-758 | -0.38 | -0.77 | no change | no change | 0.68 |
